This series deals with patients with glaucomatous neuropathy. The series is described as follows: Clinical treatment of glaucomatous neuropathy: visual acuity, automated perimetry, ocular tension. The series is classed as in vivo, human. The following applies: Mean; for Short term fluctuation SF: normal 0..2. The method, then:
The invention will now be illustrated by the following description of clinical examples which, of course, are not limiting in nature. In these examples the active principle, in particular ramipril, was administered continuously in an oral form, in an amount of 1.25 mg per day.
FIGS. 1 and 2 reproduce the fields of vision of the left eye; FIGS. 3 and 4 reproduce the field of vision of the right eye as perceived by one of the treated patients who suffered from glaucomatous neuropathy, respectively before treatment (FIGS. 1 and 3) and after treatment, 10 days later (FIGS. 2 and 4).
The grey scale provides an “image” of visual function, point by point, of different regions of the retina; the palest zones correspond to regions in which the visual functions are the least altered; the darkest zones correspond to those that have altered the most. […] A reduction in the darkest regions also indicates local visual recovery in regions that have become lighter.
The values that appear in the right hand portions of the figures correspond to the threshold values measured locally at set points in the retina. […] In contrast, the values that appear in the lower right hand portions of the figures correspond to local loss of vision in the zones concerned of the retina compared with the normal.
The Bebie curves also provide comparative images of the visual capacity of the subject under examination (lower curves) compared with the curves for normal or quasi-normal subjects (upper curves).

The results in this text go back to patent US7049340B1, “Neuroprotective and retinoprotective ophthalmologic drugs” (priority 1999, dated 2006).

On to `CCOC(=O)[C@H](CCc1ccccc1)N[C@@H](C)C(=O)N1[C@H](C(=O)O)C[C@@H]2CCC[C@@H]21` [ramipril], for which the “Short term fluctuation SF” value reads like this: (left eye after treatment (10 days), before 2.7) 3.0 dB^2; (right eye after treatment (10 days), before 3.0) 2.6 dB^2. Also, the “Reliability factor RF” value turned out to be 5.0% (left eye after treatment (10 days), before 4.9) and 2.3% (right eye after treatment (10 days), before 2.3).
